According to the supplement of paper PMC10849652:
This is one part of the list.

By UniProt entry, the sequences of proteins in these tests, tags left out. Where a name states a change or a piece, a line headed by the entry shows the natural chain unless it says otherwise.
UniProt Q96EU6: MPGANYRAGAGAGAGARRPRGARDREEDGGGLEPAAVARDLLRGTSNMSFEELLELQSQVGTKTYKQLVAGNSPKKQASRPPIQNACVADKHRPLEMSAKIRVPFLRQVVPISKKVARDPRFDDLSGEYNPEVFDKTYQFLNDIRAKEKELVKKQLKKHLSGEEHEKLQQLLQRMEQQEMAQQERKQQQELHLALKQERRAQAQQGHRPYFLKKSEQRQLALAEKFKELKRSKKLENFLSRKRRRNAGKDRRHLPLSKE
UniProt Q9NRG7: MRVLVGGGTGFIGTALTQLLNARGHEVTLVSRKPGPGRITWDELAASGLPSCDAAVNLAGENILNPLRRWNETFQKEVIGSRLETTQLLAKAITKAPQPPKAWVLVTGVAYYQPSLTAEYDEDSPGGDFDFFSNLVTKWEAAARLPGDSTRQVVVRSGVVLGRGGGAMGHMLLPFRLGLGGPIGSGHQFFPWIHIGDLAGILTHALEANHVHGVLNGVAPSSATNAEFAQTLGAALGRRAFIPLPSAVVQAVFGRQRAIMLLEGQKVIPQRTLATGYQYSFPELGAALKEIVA
UniProt Q86SQ7: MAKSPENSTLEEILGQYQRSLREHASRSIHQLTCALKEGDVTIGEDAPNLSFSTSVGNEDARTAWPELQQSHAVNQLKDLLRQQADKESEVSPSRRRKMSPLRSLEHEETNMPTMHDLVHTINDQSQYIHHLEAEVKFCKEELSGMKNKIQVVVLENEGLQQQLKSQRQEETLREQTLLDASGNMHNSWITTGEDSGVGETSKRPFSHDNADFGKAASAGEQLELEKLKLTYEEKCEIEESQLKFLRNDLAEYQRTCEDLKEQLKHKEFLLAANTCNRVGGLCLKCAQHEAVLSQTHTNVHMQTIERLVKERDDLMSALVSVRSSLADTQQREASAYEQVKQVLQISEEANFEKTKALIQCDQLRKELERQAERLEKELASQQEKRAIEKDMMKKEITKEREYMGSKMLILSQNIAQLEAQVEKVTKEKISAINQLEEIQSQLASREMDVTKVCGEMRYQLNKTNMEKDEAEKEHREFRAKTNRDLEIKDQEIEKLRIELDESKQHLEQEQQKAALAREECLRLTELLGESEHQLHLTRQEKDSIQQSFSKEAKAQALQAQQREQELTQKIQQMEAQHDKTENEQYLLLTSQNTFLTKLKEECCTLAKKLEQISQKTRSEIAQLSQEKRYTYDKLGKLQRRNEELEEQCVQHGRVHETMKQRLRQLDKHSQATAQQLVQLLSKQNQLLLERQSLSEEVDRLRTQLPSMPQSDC
UniProt O95969: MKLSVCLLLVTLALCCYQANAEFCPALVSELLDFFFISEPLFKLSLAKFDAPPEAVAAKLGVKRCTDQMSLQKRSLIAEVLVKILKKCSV
UniProt Q96IW7: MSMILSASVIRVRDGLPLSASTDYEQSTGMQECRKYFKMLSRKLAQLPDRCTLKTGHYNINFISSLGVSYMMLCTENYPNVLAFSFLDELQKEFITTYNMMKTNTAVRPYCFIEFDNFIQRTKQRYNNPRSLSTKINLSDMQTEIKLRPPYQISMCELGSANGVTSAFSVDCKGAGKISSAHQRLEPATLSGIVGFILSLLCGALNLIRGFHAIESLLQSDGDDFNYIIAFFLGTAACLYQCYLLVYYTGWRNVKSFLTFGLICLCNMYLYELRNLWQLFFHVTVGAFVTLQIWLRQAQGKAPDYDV
UniProt Q9NTJ5: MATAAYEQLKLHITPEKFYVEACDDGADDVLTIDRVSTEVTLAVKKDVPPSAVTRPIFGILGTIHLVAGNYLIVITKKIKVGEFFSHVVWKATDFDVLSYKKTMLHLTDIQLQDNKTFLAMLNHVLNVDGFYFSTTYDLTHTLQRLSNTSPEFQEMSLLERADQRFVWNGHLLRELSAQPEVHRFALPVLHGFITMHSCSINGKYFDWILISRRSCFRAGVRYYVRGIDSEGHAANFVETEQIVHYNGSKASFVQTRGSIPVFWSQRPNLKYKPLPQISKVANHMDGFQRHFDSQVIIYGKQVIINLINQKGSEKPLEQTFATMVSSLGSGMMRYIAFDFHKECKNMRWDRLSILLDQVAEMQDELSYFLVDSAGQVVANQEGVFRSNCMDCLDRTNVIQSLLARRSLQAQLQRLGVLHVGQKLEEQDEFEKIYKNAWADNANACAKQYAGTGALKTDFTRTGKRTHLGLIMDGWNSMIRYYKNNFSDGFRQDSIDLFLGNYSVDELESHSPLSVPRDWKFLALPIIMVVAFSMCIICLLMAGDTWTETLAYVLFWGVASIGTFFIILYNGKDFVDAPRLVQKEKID
UniProt Q96T23: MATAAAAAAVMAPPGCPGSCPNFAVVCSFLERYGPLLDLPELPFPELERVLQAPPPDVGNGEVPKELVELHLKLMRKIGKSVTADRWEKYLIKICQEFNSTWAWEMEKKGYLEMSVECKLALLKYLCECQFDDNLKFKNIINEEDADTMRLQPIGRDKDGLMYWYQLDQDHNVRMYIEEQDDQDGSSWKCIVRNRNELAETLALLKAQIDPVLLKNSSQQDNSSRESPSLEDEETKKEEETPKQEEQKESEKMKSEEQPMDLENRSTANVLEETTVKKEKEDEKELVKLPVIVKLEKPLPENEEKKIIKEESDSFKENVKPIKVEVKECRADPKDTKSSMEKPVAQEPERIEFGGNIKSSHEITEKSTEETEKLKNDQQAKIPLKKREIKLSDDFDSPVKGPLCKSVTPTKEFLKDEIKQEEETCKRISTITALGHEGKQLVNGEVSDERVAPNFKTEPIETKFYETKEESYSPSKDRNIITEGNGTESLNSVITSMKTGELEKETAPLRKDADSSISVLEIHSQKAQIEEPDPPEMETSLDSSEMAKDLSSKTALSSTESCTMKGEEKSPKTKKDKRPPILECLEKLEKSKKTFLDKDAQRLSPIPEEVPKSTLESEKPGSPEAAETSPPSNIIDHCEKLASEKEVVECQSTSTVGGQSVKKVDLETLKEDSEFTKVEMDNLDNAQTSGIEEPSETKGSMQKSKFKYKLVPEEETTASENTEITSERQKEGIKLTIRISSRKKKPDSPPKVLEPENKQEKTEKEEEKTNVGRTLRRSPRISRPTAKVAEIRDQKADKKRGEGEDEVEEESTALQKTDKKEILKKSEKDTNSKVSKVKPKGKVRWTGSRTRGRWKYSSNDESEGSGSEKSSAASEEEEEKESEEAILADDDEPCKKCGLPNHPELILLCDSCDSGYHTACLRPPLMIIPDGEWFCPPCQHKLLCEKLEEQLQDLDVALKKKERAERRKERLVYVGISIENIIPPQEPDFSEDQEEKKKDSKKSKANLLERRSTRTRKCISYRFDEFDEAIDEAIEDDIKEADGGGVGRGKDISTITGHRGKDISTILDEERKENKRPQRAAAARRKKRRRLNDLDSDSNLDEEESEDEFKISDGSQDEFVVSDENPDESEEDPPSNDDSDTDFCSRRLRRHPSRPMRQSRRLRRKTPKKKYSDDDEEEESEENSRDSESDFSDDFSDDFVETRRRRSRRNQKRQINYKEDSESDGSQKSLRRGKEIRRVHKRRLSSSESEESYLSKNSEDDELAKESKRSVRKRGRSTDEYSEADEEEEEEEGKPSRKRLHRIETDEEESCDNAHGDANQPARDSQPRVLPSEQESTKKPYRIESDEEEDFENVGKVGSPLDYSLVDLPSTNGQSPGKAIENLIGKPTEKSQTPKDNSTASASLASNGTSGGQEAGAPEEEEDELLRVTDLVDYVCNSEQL
UniProt Q5PRF9: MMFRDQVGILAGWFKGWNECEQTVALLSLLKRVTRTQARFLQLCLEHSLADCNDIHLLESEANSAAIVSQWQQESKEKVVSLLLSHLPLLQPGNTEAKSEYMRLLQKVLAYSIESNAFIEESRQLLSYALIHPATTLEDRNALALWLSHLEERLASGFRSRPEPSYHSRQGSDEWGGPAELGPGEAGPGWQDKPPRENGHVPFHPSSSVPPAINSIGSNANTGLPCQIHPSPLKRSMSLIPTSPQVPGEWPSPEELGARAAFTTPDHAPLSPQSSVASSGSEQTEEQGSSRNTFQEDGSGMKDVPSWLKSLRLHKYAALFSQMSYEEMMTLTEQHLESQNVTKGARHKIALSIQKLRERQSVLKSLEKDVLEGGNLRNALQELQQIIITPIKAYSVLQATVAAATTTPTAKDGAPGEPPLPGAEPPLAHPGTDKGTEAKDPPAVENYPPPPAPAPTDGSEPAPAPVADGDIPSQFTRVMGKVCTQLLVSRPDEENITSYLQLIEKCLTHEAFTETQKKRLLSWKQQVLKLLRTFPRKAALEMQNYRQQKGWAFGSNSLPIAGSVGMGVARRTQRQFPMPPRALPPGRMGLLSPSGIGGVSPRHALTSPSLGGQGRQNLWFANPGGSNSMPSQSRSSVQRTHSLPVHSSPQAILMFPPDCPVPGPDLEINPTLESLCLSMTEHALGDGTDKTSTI
UniProt Q7L099: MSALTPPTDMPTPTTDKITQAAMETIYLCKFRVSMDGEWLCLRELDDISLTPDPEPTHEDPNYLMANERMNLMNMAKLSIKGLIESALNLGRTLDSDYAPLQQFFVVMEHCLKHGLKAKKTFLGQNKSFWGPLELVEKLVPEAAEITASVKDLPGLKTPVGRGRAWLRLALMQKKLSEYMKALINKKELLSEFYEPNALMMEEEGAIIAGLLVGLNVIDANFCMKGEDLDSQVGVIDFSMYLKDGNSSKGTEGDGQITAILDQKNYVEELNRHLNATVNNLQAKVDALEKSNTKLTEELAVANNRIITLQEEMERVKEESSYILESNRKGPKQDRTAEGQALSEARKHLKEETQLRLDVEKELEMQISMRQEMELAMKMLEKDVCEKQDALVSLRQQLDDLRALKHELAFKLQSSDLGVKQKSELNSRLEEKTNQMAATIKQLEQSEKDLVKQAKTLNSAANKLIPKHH
UniProt Q9NQC3: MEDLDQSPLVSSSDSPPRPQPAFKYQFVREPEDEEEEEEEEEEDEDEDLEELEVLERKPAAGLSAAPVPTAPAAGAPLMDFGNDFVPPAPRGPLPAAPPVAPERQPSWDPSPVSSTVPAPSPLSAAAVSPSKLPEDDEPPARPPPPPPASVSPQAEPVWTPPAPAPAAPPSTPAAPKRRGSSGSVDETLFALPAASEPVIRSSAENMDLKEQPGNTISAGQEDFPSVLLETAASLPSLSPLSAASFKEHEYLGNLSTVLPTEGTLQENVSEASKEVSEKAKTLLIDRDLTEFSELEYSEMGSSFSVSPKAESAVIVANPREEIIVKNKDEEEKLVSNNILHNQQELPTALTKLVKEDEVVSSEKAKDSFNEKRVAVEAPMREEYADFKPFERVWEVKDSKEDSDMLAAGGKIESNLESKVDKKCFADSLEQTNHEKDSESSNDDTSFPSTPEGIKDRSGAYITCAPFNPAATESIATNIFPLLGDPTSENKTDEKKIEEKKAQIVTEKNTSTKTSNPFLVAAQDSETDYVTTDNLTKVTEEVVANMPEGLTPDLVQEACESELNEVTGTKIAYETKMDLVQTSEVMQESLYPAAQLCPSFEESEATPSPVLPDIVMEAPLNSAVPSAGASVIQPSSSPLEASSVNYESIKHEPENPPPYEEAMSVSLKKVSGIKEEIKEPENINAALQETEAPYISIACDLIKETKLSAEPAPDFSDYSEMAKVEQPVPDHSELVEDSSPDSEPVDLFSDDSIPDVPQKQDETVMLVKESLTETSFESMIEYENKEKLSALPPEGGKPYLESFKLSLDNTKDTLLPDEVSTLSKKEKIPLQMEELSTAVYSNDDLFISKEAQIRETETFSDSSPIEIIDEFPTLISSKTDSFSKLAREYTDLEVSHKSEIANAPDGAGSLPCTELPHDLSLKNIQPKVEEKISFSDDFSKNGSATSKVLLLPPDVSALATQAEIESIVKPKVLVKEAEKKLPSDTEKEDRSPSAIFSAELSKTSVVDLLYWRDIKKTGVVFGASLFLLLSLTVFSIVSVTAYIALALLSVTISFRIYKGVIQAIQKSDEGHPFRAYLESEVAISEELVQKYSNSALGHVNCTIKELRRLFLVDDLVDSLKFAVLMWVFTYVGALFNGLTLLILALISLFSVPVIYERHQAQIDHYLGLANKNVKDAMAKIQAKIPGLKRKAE
UniProt Q01196, whole entry, looked up: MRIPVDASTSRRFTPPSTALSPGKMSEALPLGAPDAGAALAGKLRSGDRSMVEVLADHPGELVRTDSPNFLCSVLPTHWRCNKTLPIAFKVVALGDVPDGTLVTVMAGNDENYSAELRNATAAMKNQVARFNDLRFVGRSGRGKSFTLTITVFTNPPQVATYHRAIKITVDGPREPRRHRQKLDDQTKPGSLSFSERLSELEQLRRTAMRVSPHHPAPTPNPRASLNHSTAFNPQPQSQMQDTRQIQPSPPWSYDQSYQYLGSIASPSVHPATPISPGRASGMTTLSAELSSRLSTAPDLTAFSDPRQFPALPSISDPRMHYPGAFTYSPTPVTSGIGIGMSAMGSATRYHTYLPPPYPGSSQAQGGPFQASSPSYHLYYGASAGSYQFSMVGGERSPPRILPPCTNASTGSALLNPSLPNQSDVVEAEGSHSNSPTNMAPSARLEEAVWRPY
UniProt P26447: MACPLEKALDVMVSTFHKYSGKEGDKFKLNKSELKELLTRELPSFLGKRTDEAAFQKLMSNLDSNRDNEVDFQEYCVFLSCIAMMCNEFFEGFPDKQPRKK

compound: C1CN(CCC1(CC2=CC=C(C=C2)Cl)N)C3=NC=NC4=C3C=CN4; assay: log2 fold change, soluble protein after heating vs DMSO (PISA); higher = thermal stabilisation; K562 cells, 10 uM, 30 min; active = over 0.2 and 3.5 SD of the protein, either way, in both replicates (recomputed)
Method in brief: (§1)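 Quantification of soluble protein used TMTpro 16plex LC-MS/MS, with channel sums equalised. Samples were the supernatant after 21,000xg for 90 min of pooled aliquots from K562 cells (2×10^6 cells/mL) treated with 10 μM compound for 30 min, heated for 3 min over 48°C-58°C, and extracted in PBS with 0.5% NP-40 at 4°C. Values, from duplicates, describe thermal stability against control samples on a log2 fold-change scale.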

| Target | log2 fold change |
| --- | --- |
| RRP36 (UniProt Q96EU6) | inactive: -0.146 |
| SCAMP2 (UniProt H3BUB6) | inactive: -0.003 |
| SDHD (UniProt O14521) | inactive: -0.026 |
| SCG3 (UniProt Q8WXD2) | inactive: 0.036 |
| SCYL3 isoform 2 (UniProt Q8IZE3) | inactive: 0.123 |
| SCAMP2 (UniProt O15127) | inactive: 0.087 |
| SDR39U1 (UniProt Q9NRG7) | inactive: 0.202 |
| RTF2 (UniProt Q9BY42) | inactive: 0.045 |
| SDCCAG8 (UniProt Q86SQ7) | inactive: 0.105 |
| SDHAF4 (UniProt Q5VUM1) | inactive: 0.094 |
| RSRC2 (UniProt Q7L4I2) | inactive: 0.012 |
| SCGB1D2 (UniProt O95969) | inactive: -0.273 |
| SEC22A (UniProt Q96IW7) | inactive: -0.01 |
| SACM1L (UniProt Q9NTJ5) | inactive: 0.068 |
| RSF1 (UniProt Q96T23) | inactive: 0.006 |
| SAMD4B (UniProt Q5PRF9) | inactive: 0.045 |
| S100A2 (UniProt P29034) | inactive: 0.431 |
| SCAF4 (UniProt O95104) | inactive: -0.074 |
| RSPRY1 (UniProt Q96DX4) | inactive: 0.033 |
| S100A14 (UniProt Q9HCY8) | inactive: -0.531 |
| SC5D (UniProt O75845) | inactive: 0.064 |
| RSL24D1 (UniProt Q9UHA3) | inactive: -0.162 |
| SDHAF2 (UniProt Q9NX18) | inactive: -0.091 |
| RUFY3 isoform 3 (UniProt Q7L099) | inactive: -0.07 |
| RTN4 isoform 5 (UniProt Q9NQC3) | inactive: 0.09 |

compound: C1COCCN1CCN2C3=CC=CC=C3N=C2NC(=O)C4=CC(=CC=C4)[N+](=O)[O-] [IRAK-1-4 Inhibitor I]; assay: as above
Method in brief: as §1

| Target | log2 fold change |
| --- | --- |
| SCAMP2 (UniProt H3BUB6) | inactive: 0.078 |
| SCG3 (UniProt Q8WXD2) | inactive: -0.003 |
| SCYL3 isoform 2 (UniProt Q8IZE3) | inactive: 0.087 |
| RTF2 (UniProt Q9BY42) | inactive: 0 |
| SDCCAG8 (UniProt Q86SQ7) | inactive: -0.096 |
| SDHAF4 (UniProt Q5VUM1) | inactive: -0.071 |
| RSRC2 (UniProt Q7L4I2) | inactive: 0.03 |
| SCAI isoform 2 (UniProt Q8N9R8) | inactive: -0.185 |
| RUNX1 isoform 8 (UniProt Q01196) | inactive: -0.102 |
| SEC22A (UniProt Q96IW7) | inactive: 0.006 |
| S100A4 (UniProt P26447) | inactive: 0.139 |
| SACM1L (UniProt Q9NTJ5) | inactive: 0.008 |
| RSF1 (UniProt Q96T23) | inactive: -0.188 |
| SAMD4B (UniProt Q5PRF9) | inactive: 0.007 |
| SAP30 (UniProt O75446) | inactive: 0.018 |
| SDHB, A0A087WWT1 | inactive: 0.034 |
| RWDD2B (UniProt P57060) | inactive: 0.03 |
| SCAF4 (UniProt O95104) | inactive: -0.06 |
| RSPRY1 (UniProt Q96DX4) | inactive: 0.018 |
| SDHAF2 (UniProt Q9NX18) | inactive: 0.013 |
| RUFY3 isoform 3 (UniProt Q7L099) | inactive: -0.008 |
| RTN4 isoform 5 (UniProt Q9NQC3) | inactive: 0.037 |
